Experimental data: PubChem BioAssay AID1159578 (Peter MacCallum Cancer Centre, 2015)
The deposit covers about 18,000 reagents; this is an unselected part. Over the whole deposit, about 1,030 (5.7%) got an active call. 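Inactive calls also include pools with fewer than 3300 nuclei, whose migration was not assessed.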 Raw values vary from plate to plate and are shown uncorrected. A number with no mark means an inactive call.

- Test: 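Genome-wide hunt for genes controlling movement of lymphatic endothelial cells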 (primary screen)
- Cell system: human lymphatic endothelial cells
- Reagent: siRNA pool against human genes, 40 nM
- Timing: 48 h after transfection
- Detection: 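High-content imaging of dye-stained cells in a scratch assay measures filled wound area and nuclei per well; duplicate means given as ratio to mock and robust z-score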
- Direction: migration robust z-score: higher = faster migration into the scratch; migration relative to mock: higher = more scratch area covered than mock; nuclei per well: higher = more cells in the well
- Rule for the call: 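Migration changed when robust z exceeds 2 or falls below -2 and mean nuclei number is at least 3300; otherwise not called changed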
- Meaning of the calls: active = migration changed; inactive = no migration change, or too few cells

Gene | PubChem SID | migration robust z-score | migration class with cell-count check | migration relative to mock | nuclei per well, duplicate mean
COQ8B (coenzyme Q8B) | SID255360578 | -0.73 | migration z between -2 and 2; enough cells | 0.66 | 5094
MMP3 (matrix metallopeptidase 3) | SID255350993 | 0.62 | migration z between -2 and 2; enough cells | 0.92 | 5096
USP5 (ubiquitin specific peptidase 5) | SID255353383 | 0.36 | migration z between -2 and 2; enough cells | 0.88 | 5489
CDC42EP2 (CDC42 effector protein 2) | SID255355075 | 1.04 | migration z between -2 and 2; enough cells | 1.16 | 5828
SBNO1 (strawberry notch homolog 1) | SID255358499 | -0.57 | migration z between -2 and 2; enough cells | 0.74 | 5760
CHERP (calcium homeostasis endoplasmic reticulum protein) | SID255355149 | -0.04 | migration z between -2 and 2; enough cells | 0.88 | 5799
ZNF829 (zinc finger protein 829) | SID255365343 | 0.48 | migration z between -2 and 2; enough cells | 1 | 5516
ZCCHC2 (zinc finger CCHC-type containing 2) | SID255358234 | 0.71 | migration z between -2 and 2; enough cells | 1.07 | 5695
ATP6V1A (ATPase H+ transporting V1 subunit A) | SID255348471 | 0.67 | migration z between -2 and 2; enough cells | 0.94 | 5414
SPHK1 (sphingosine kinase 1) | SID255353886 | 0.1 | migration z between -2 and 2; enough cells | 0.82 | 4903
SQOR (sulfide quinone oxidoreductase) | SID255359623 | -0.44 | migration z between -2 and 2; enough cells | 0.72 | 5193
KLRC2 (killer cell lectin like receptor C2) | SID255350658 | 1.06 | migration z between -2 and 2; enough cells | 1.16 | 6133
VPS35 (VPS35 retromer complex component) | SID255358817 | 1.08 | migration z between -2 and 2; enough cells | 1.17 | 6468
RBFOX3 (RNA binding fox-1 homolog 3) | SID255363292 | 0.4 | migration z between -2 and 2; enough cells | 0.99 | 5914
RBFOX3 (RNA binding fox-1 homolog 3) | SID255366097 | -1.51 | migration z between -2 and 2; enough cells | 0.5 | 5242
DELEC1 (deleted in esophageal cancer 1) | SID255357335 | -0.02 | migration z between -2 and 2; enough cells | 0.88 | 6012
KAT6B (lysine acetyltransferase 6B) | SID255356298 | 0.28 | migration z between -2 and 2; enough cells | 0.86 | 4992
CLEC4G (C-type lectin domain family 4 member G) | SID255365033 | -1.57 | migration z between -2 and 2; enough cells | 0.48 | 5459
KLF4 (KLF transcription factor 4) | SID255354182 | 0.6 | migration z between -2 and 2; enough cells | 0.92 | 4966
CILP2 (cartilage intermediate layer protein 2) | SID255363365 | 0 | migration z between -2 and 2; enough cells | 0.88 | 5185
SCAF8 (SR-related CTD associated factor 8) | SID255355799 | 0.25 | migration z between -2 and 2; enough cells | 0.95 | 6050
SLC9A6 | SID255355114 | 0.13 | migration z between -2 and 2; enough cells | 0.83 | 5787
JRKL (JRK like) | SID255353741 | -0.31 | migration z between -2 and 2; enough cells | 0.74 | 5584
CALHM6 (calcium homeostasis modulator family member 6) | SID255365935 | -0.56 | migration z between -2 and 2; enough cells | 0.74 | 5785
JRK (Jrk helix-turn-helix protein) | SID255353690 | -0.14 | migration z between -2 and 2; enough cells | 0.85 | 5273
HEMK2 | SID255357143 | 1.27 | migration z between -2 and 2; enough cells | 1.05 | 5440
GTF2F2 (general transcription factor IIF subunit 2) | SID255350089 | 0.52 | migration z between -2 and 2; enough cells | 0.9 | 5225
MUL1 (mitochondrial E3 ubiquitin protein ligase 1) | SID255360318 | 1.17 | migration z between -2 and 2; enough cells | 1.03 | 6146
UBR4 (ubiquitin protein ligase E3 component n-recognin 4) | SID255356178 | 0.66 | migration z between -2 and 2; enough cells | 1.06 | 5926
ZNF687 (zinc finger protein 687) | SID255359494 | -0.71 | migration z between -2 and 2; enough cells | 0.7 | 5092
RBM44 (RNA binding motif protein 44) | SID255365365 | -0.58 | migration z between -2 and 2; enough cells | 0.74 | 5108
B3GNT4 | SID255360280 | -0.36 | migration z between -2 and 2; enough cells | 0.74 | 5709
ZNF195 (zinc finger protein 195) | SID255353268 | 0.38 | migration z between -2 and 2; enough cells | 0.98 | 8112
ZNF211 (zinc finger protein 211) | SID255355146 | -1.85 | migration z between -2 and 2; enough cells | 0.4 | 5409
DEPDC7 (DEP domain containing 7) | SID255361933 | 0.52 | migration z between -2 and 2; enough cells | 1.02 | 6178
GLI2 (GLI family zinc finger 2) | SID255349912 | 0.1 | migration z between -2 and 2; enough cells | 0.91 | 6394
INTS6 (integrator complex subunit 6) | SID255356798 | -0.05 | migration z between -2 and 2; enough cells | 0.8 | 4042
PLXNA4 (plexin A4) | SID255361928 | -0.05 | migration z between -2 and 2; enough cells | 0.86 | 5255
SAP30L (SAP30 like) | SID255360388 | -1.29 | migration z between -2 and 2; enough cells | 0.55 | 4995
ABHD6 (abhydrolase domain containing 6, acylglycerol lipase) | SID255359375 | 0.8 | migration z between -2 and 2; enough cells | 0.96 | 5973
SERPINI1 (serpin family I member 1) | SID255351569 | -1.27 | migration z between -2 and 2; enough cells | 0.56 | 4384
PTS (6-pyruvoyltetrahydropterin synthase) | SID255351972 | 0.42 | migration z between -2 and 2; enough cells | 0.88 | 6278
CYRIB (CYFIP related Rac1 interactor B) | SID255357793 | 0.04 | migration z between -2 and 2; enough cells | 0.9 | 4999
OR56B4 (olfactory receptor family 56 subfamily B member 4) | SID255363959 | -1.32 | migration z between -2 and 2; enough cells | 0.54 | 5412
MFSD2B (MFSD2 lysolipid transporter B, sphingolipid) | SID255365528 | 0.06 | migration z between -2 and 2; enough cells | 0.9 | 6060
FIGN (fidgetin, microtubule severing factor) | SID255358438 | 0.35 | migration z between -2 and 2; enough cells | 0.98 | 4605
MPPE1 (metallophosphoesterase 1) | SID255360106 | 1.22 | migration z between -2 and 2; enough cells | 1.04 | 5938
ACO1 (aconitase 1) | SID255348144 | 0.47 | migration z between -2 and 2; enough cells | 0.9 | 5410
CYP46A1 (cytochrome P450 family 46 subfamily A member 1) | SID255355394 | -0.36 | migration z between -2 and 2; enough cells | 0.74 | 4672
RPS28 (ribosomal protein S28) | SID255352237 | -1.68 | migration z between -2 and 2; enough cells | 0.45 | 4211
ERI3 (ERI1 exoribonuclease family member 3) | SID255360174 | -0.7 | migration z between -2 and 2; enough cells | 0.7 | 6760
KLHL8 (kelch like family member 8) | SID255359472 | -0.65 | migration z between -2 and 2; enough cells | 0.72 | 4838
CCDC167 (coiled-coil domain containing 167) | SID255363593 | -1.22 | migration z between -2 and 2; enough cells | 0.57 | 5832
BAAT (bile acid-CoA:amino acid N-acyltransferase) | SID255348497 | -0.75 | migration z between -2 and 2; enough cells | 0.66 | 6500
RSPO2 (R-spondin 2) | SID255365085 | 0.64 | migration z between -2 and 2; enough cells | 1.05 | 6340
RASAL1 (RAS protein activator like 1) | SID255353550 | -0.06 | migration z between -2 and 2; enough cells | 0.8 | 5043
CD1E (CD1e molecule) | SID255348749 | -2.16 (active) | migration z below -2; enough cells | 0.32 | 4490
HINFP (histone H4 transcription factor) | SID255356598 | 1.06 | migration z between -2 and 2; enough cells | 1.16 | 6132
AMER1 (APC membrane recruitment protein 1) | SID255363071 | -0.76 | migration z between -2 and 2; enough cells | 0.68 | 6866
TIMM8B (translocase of inner mitochondrial membrane 8 homolog B) | SID255356803 | 1.46 | migration z between -2 and 2; enough cells | 1.27 | 5293
FNDC4 (fibronectin type III domain containing 4) | SID255360019 | -0.9 | migration z between -2 and 2; enough cells | 0.65 | 5323
TMEM102 (transmembrane protein 102) | SID255364742 | -0.09 | migration z between -2 and 2; enough cells | 0.86 | 7032
EPO (erythropoietin) | SID255349535 | -0.04 | migration z between -2 and 2; enough cells | 0.88 | 5391
ASPA (aspartoacylase) | SID255348427 | -0.2 | migration z between -2 and 2; enough cells | 0.76 | 6914
ZNF304 (zinc finger protein 304) | SID255359363 | -1.75 | under 3300 nuclei; migration not judged | 0.43 | 2817
ELOF1 (elongation factor 1) | SID255361346 | -1.08 | migration z between -2 and 2; enough cells | 0.6 | 6152
RHBG (Rh family B glycoprotein) | SID255359285 | -0.72 | under 3300 nuclei; migration not judged | 0.7 | 3264
ZNF672 (zinc finger protein 672) | SID255360550 | -3.44 (active) | migration z below -2; enough cells | -0.01 | 3470
CCT8L2 (chaperonin containing TCP1 subunit 8 like 2) | SID255363440 | -0.7 | migration z between -2 and 2; enough cells | 0.67 | 6426
CD1B (CD1b molecule) | SID255348746 | -1.15 | migration z between -2 and 2; enough cells | 0.59 | 3864
TMEM109 (transmembrane protein 109) | SID255360198 | 0.8 | migration z between -2 and 2; enough cells | 1.09 | 5106
LIPH (lipase H) | SID255364051 | 0.9 | migration z between -2 and 2; enough cells | 0.98 | 6176
ABCA13 (ATP binding cassette subfamily A member 13) | SID255363595 | 1.25 | migration z between -2 and 2; enough cells | 1.04 | 5676

Single entries from the list.
ZNF672 (zinc finger protein 672) [SID255360550], migration robust z-score = -3.44 (active)
Value of RASAL1 (RAS protein activator like 1) [SID255353550] in “migration robust z-score”: -0.06
For “nuclei per well, duplicate mean”, CYRIB (CYFIP related Rac1 interactor B) [SID255357793] reads 4999
CALHM6 (calcium homeostasis modulator family member 6) [SID255365935], migration class with cell-count check: migration z between -2 and 2; enough cells
